# Measurements: the supplement of paper PMC8728848
# Some of the results follow.
# Columns and labels:
# Assay in all cases: glycan array binding signal (z-score within array); higher = stronger binding
# Conditions in all cases: glycan notation: IUPAC condensed, linker removed
# [1] = biological target: Fuc(a1-2)[Gal(a1-3)]Gal(b1-4)GlcNAc(b1-2)Man(a1-3)[Fuc(a1-2)[Gal(a1-3)]Gal(b1-4)GlcNAc(b1-2)Man(a1-6)]Man(b1-4)GlcNAc(b1-4)GlcNAc
# In short: (§1)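 From the Consortium for Functional Glycomics database, 3228 arrays were curated, keeping only those whose protein sequence was available. Binding is given as a within-array Z-score averaged across arrays sharing a protein sequence and across linkers. Negative Z-scores can be read as non-binding.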
# [2] = biological target: Fuc(a1-2)[Gal(a1-3)]Gal(b1-4)GlcNAc(b1-2)Man(a1-3)[Fuc(a1-2)[Gal(a1-3)]Gal(b1-4)GlcNAc(b1-2)Man(a1-6)]Man(b1-4)GlcNAc(b1-4)[Fuc(a1-6)]GlcNAc
# In short: as §1
# [3] = biological target: Fuc(a1-2)[Gal(a1-3)]Gal(b1-4)GlcNAc(b1-3)GalNAc
# In short: as §1
# [4] = biological target: Fuc(a1-2)[Gal(a1-3)]Gal(b1-4)GlcNAc(b1-3)[Fuc(a1-2)[Gal(a1-3)]Gal(b1-4)GlcNAc(b1-6)]GalNAc
# In short: as §1
# [5] = biological target: Fuc(a1-2)[Gal(a1-3)]Gal(b1-4)GlcNAc(b1-6)GalNAc
# In short: as §1
# [6] = biological target: Fuc(a1-2)[Gal(a1-3)]Gal(b1-4)[Fuc(a1-3)]Glc
# In short: as §1
# [7] = biological target: Fuc(a1-2)[Gal(a1-3)]Gal(b1-4)[Fuc(a1-3)]GlcNAc
# In short: as §1
# [8] = biological target: Fuc(a1-2)[Gal(a1-3)]Gal(b1-4)[Fuc(a1-3)]GlcNAc(b1-3)GalNAc
# In short: as §1
# [9] = biological target: Fuc(a1-2)[Gal(a1-4)]Gal(b1-4)GlcNAc
# In short: as §1
# [10] = biological target: Fuc(a1-2)[GalNAc(a1-3)]Gal
# In short: as §1
# [11] = biological target: Fuc(a1-2)[GalNAc(a1-3)]Gal(b1-3)GalNAc(a1-3)[Fuc(a1-2)]Gal(b1-4)GlcNAc
# In short: as §1
# [12] = biological target: Fuc(a1-2)[GalNAc(a1-3)]Gal(b1-3)GalNAc(b1-3)Gal(a1-4)Gal(b1-4)Glc
# In short: as §1
# [13] = biological target: Fuc(a1-2)[GalNAc(a1-3)]Gal(b1-3)GlcNAc
# In short: as §1
# [14] = biological target: Fuc(a1-2)[GalNAc(a1-3)]Gal(b1-3)GlcNAc(b1-2)Man(a1-3)[Fuc(a1-2)[GalNAc(a1-3)]Gal(b1-3)GlcNAc(b1-2)Man(a1-6)]Man(b1-4)GlcNAc(b1-4)GlcNAc
# In short: as §1
# [15] = biological target: Fuc(a1-2)[GalNAc(a1-3)]Gal(b1-3)GlcNAc(b1-2)Man(a1-3)[Fuc(a1-2)[GalNAc(a1-3)]Gal(b1-3)GlcNAc(b1-2)Man(a1-6)]Man(b1-4)GlcNAc(b1-4)[Fuc(a1-6)]GlcNAc
# In short: as §1
# [16] = biological target: Fuc(a1-2)[GalNAc(a1-3)]Gal(b1-3)GlcNAc(b1-3)GalNAc
# In short: as §1
# [17] = biological target: Fuc(a1-2)[GalNAc(a1-3)]Gal(b1-3)GlcNAc(b1-6)GalNAc
# In short: as §1
# [18] = biological target: Fuc(a1-2)[GalNAc(a1-3)]Gal(b1-4)Glc
# In short: as §1
# [19] = biological target: Fuc(a1-2)[GalNAc(a1-3)]Gal(b1-4)GlcNAc
# In short: as §1
# [20] = biological target: Fuc(a1-2)[GalNAc(a1-3)]Gal(b1-4)GlcNAc(b1-2)Man
# In short: as §1
# [21] = biological target: Fuc(a1-2)[GalNAc(a1-3)]Gal(b1-4)GlcNAc(b1-2)Man(a1-3)[Fuc(a1-2)[GalNAc(a1-3)]Gal(b1-4)GlcNAc(b1-2)Man(a1-6)]Man(b1-4)GlcNAc(b1-4)GlcNAc
# In short: as §1
# [22] = biological target: Fuc(a1-2)[GalNAc(a1-3)]Gal(b1-4)GlcNAc(b1-2)Man(a1-3)[Fuc(a1-2)[GalNAc(a1-3)]Gal(b1-4)GlcNAc(b1-2)Man(a1-6)]Man(b1-4)GlcNAc(b1-4)[Fuc(a1-6)]GlcNAc
# In short: as §1
# [23] = biological target: Fuc(a1-2)[GalNAc(a1-3)]Gal(b1-4)GlcNAc(b1-3)Gal(b1-4)GlcNAc
# In short: as §1
# [24] = biological target: Fuc(a1-2)[GalNAc(a1-3)]Gal(b1-4)GlcNAc(b1-3)Gal(b1-4)GlcNAc(b1-3)Gal(b1-4)GlcNAc
# In short: as §1
# [25] = biological target: Fuc(a1-2)[GalNAc(a1-3)]Gal(b1-4)GlcNAc(b1-3)GalNAc
# In short: as §1
# [26] = biological target: Fuc(a1-2)[GalNAc(a1-3)]Gal(b1-4)GlcNAc(b1-3)[Fuc(a1-2)[GalNAc(a1-3)]Gal(b1-4)GlcNAc(b1-6)]GalNAc
# In short: as §1
# [27] = biological target: Fuc(a1-2)[GalNAc(a1-3)]Gal(b1-4)GlcNAc(b1-6)GalNAc
# In short: as §1
# [28] = biological target: Fuc(a1-2)[GalNAc(a1-3)]Gal(b1-4)[Fuc(a1-3)]GlcNAc
# In short: as §1
# [29] = biological target: Fuc(a1-2)[GalNAc(a1-3)]Gal(b1-4)[Fuc(a1-3)]GlcNAc(b1-3)GalNAc
# In short: as §1
# [30] = biological target: Fuc(a1-2)[GalNAc(a1-4)]Gal(b1-4)GlcNAc
# In short: as §1
# [31] = biological target: Fuc(a1-2)[GalNAc(b1-3)]Gal
# In short: as §1
# Fuc(a1-3)GlcNAc = biological target: Fuc(a1-3)GlcNAc
# In short: as §1
# [32] = biological target: Fuc(a1-3)[Gal(b1-4)]Glc6S
# In short: as §1
# [33] = biological target: Fuc(a1-3)[Gal(b1-4)]GlcNAc
# In short: as §1
# [34] = biological target: Fuc(a1-3)[Gal(b1-4)]GlcNAc(b1-2)Man
# In short: as §1
# [35] = biological target: Fuc(a1-3)[Gal(b1-4)]GlcNAc(b1-2)Man(a1-3)[Fuc(a1-3)[Gal(b1-4)]GlcNAc(b1-2)Man(a1-6)]Man(b1-4)GlcNAc(b1-4)GlcNAc
# In short: as §1
# [36] = biological target: Fuc(a1-3)[Gal(b1-4)]GlcNAc(b1-2)Man(a1-3)[Fuc(a1-3)[Gal(b1-4)]GlcNAc(b1-2)Man(a1-6)]Man(b1-4)GlcNAc(b1-4)[Fuc(a1-6)]GlcNAc
# In short: as §1
# [37] = biological target: Fuc(a1-3)[Gal(b1-4)]GlcNAc(b1-3)Gal(b1-3)[Fuc(a1-4)]GlcNAc
# In short: as §1
# [38] = biological target: Fuc(a1-3)[Gal(b1-4)]GlcNAc(b1-3)Gal(b1-4)[Fuc(a1-3)]GlcNAc
# In short: as §1
# [39] = biological target: Fuc(a1-3)[Gal(b1-4)]GlcNAc(b1-3)Gal(b1-4)[Fuc(a1-3)]GlcNAc(b1-3)Gal(b1-4)[Fuc(a1-3)]GlcNAc
# In short: as §1
# [40] = biological target: Fuc(a1-3)[Gal(b1-4)]GlcNAc(b1-3)GalNAc
# In short: as §1
# [41] = biological target: Fuc(a1-3)[Gal(b1-4)]GlcNAc(b1-6)GalNAc
# In short: as §1
# [42] = biological target: Fuc(a1-3)[Gal(b1-4)]GlcNAc(b1-6)[Gal(b1-3)GlcNAc(b1-3)]Gal(b1-4)Glc
# In short: as §1
# [43] = biological target: Fuc(a1-3)[Gal(b1-4)]GlcNAc6S
# In short: as §1
# [44] = biological target: Fuc(a1-3)[Gal3S(b1-4)]Glc
# In short: as §1
binder,measurement,setting,value
"CD34 (Homo sapiens), P28906 (protein) MGSSHHHHHHSSGLVPRGSHMSTSLATSPTKPYTSSSPILSDIKAEIKCSGIREVKLTQGICLEQNKTSSCAEFKKDRGEGLARVLCGEEQADADAGAQVCSLLLAQSEVRPQCLLLVLANRTEISSKLQLMKKHQSDLKKLGILDFTEQDVASHQSYSQKT",glycan array binding signal (z-score),[1],-0.462
same,glycan array binding signal (z-score),[2],-0.5
same,glycan array binding signal (z-score),[3],0.323
same,glycan array binding signal (z-score),[4],0.293
same,glycan array binding signal (z-score),[5],0.6
same,glycan array binding signal (z-score),[6],-0.694
same,glycan array binding signal (z-score),[7],0.796
same,glycan array binding signal (z-score),[8],-0.271
same,glycan array binding signal (z-score),[9],-0.087
same,glycan array binding signal (z-score),[10],0.266
same,glycan array binding signal (z-score),[11],-1.21
same,glycan array binding signal (z-score),[12],-0.382
same,glycan array binding signal (z-score),[13],0.939
same,glycan array binding signal (z-score),[14],-0.362
same,glycan array binding signal (z-score),[15],0.64
same,glycan array binding signal (z-score),[16],1.77
same,glycan array binding signal (z-score),[17],0.239
same,glycan array binding signal (z-score),[18],-0.052
same,glycan array binding signal (z-score),[19],-0.291
same,glycan array binding signal (z-score),[20],-0.118
same,glycan array binding signal (z-score),[21],0.429
same,glycan array binding signal (z-score),[22],0.295
same,glycan array binding signal (z-score),[23],-0.515
same,glycan array binding signal (z-score),[24],0.16
same,glycan array binding signal (z-score),[25],-0.285
same,glycan array binding signal (z-score),[26],-0.163
same,glycan array binding signal (z-score),[27],-1.19
same,glycan array binding signal (z-score),[28],-0.573
same,glycan array binding signal (z-score),[29],-0.048
same,glycan array binding signal (z-score),[30],-0.585
same,glycan array binding signal (z-score),[31],-0.335
same,glycan array binding signal (z-score),Fuc(a1-3)GlcNAc,-0.344
same,glycan array binding signal (z-score),[32],0.596
same,glycan array binding signal (z-score),[33],-0.304
same,glycan array binding signal (z-score),[34],-0.466
same,glycan array binding signal (z-score),[35],-0.434
same,glycan array binding signal (z-score),[36],0.286
same,glycan array binding signal (z-score),[37],-0.493
same,glycan array binding signal (z-score),[38],-0.418
same,glycan array binding signal (z-score),[39],-0.735
same,glycan array binding signal (z-score),[40],0.226
same,glycan array binding signal (z-score),[41],-0.245
same,glycan array binding signal (z-score),[42],-0.474
same,glycan array binding signal (z-score),[43],0.038
same,glycan array binding signal (z-score),[44],-0.194

# Quoted at random: 2 records from the list, in no set order.
binder,measurement,setting,value
"CD34 (Homo sapiens), P28906 (protein) MGSSHHHHHHSSGLVPRGSHMSTSLATSPTKPYTSSSPILSDIKAEIKCSGIREVKLTQGICLEQNKTSSCAEFKKDRGEGLARVLCGEEQADADAGAQVCSLLLAQSEVRPQCLLLVLANRTEISSKLQLMKKHQSDLKKLGILDFTEQDVASHQSYSQKT",glycan array binding signal (z-score),[44],-0.194
same,glycan array binding signal (z-score),[20],-0.118
